Patent US9510570B2, “CD81 and OCLN double transgenic mouse and its construction methods” (WUHAN INSTITUTE OF VIROLOGY, CAS, priority 2013, dated 2016)
At least one structure is not confirmed: it was looked up by name or label, or the drawing left a doubt.

System: HCV
Assay: Pharmacodynamic evaluation of antiviral drug in C/O^Tg mice by acute HCV infection (HCV RNA copies by qRT-PCR)
Type: in vivo, C/O^Tg male mice
Conditions: Telaprevir 200 mg/kg i.p. daily; for viral load in the peripheral blood: started 1 week after HCV injection
Protocol: Plasmid pJ399EM was transcribed in vitro (Han et al., 2009) to obtain a RNA, and then the RNA was electroporated into Huh7.5.1 cells (Pasteur Institute) for virus production during 96 hours and for collection, followed by ultrafiltration and purification to obtain HCV. The C/O^Tg double transgenic mice or the wile type mice were injected at tail-vein with HCV (TCID50=1×10^8/mL) within 1-2 minutes. The serum or liver tissue of the C/O^Tg double transgenic mice or the wile type mice were collected respectively at indicated time 0 hour to 12 months after infection. HCV RNA level in serum (genomes/mL) and liver (genomes/g) were measured by qRT-PCR. The program was performed as follows: 50° C. for 30 minutes, 95° C. for 10 minutes, followed by 50 cycles at 95° C. for 30 seconds, 58° C. for 30 seconds, and 72° C. for 30 seconds. Primers used for detection were as follows: sense (forward primer): […] (represented by SEQ ID NO. 5); anti-sense (reverse primer): […] (represented by SEQ ID NO. 6). The viral load in serum (genomes/mL) of the wild type mice after injection was: 53746900±747977 (12 hours), 25791242±8626787 (2 days), 7026±2797 (4 days), 433±73 (1 week), and then the viral copies in peripheral blood of wild type mice was undetectable after one week. The viral load in peripheral blood (genomes/mL) of the C/O^Tg double transgenic mice after injection was: 3598678±3016340 (12 hours), 1607875±1304933 (2 days), 228942±174178 (4 days), 64505±6821 (1 week), 67622±4612 (2 weeks), 33671±13347 (3 weeks), 6921±4272 (1 month), 6739±4783 (2 months), 403±95 (3 months), 534±125 (4 months), 1375±198 (6 months), 4781±2969 (10 months), 2067±277 (12 months). […] The viral copies cannot be detectable in liver of the wile type mice after injection. […]

CCC[C@H](NC(=O)[C@@H]1[C@H]2CCC[C@H]2CN1C(=O)[C@@H](NC(=O)[C@@H](NC(=O)c1cnccn1)C1CCCCC1)C(C)(C)C)C(=O)C(=O)NC1CC1 [Telaprevir]
cannot be detected: viral load in the peripheral blood (treatment for 1 week) | viral load in the peripheral blood (treatment for 2 weeks) | viral copies in the liver (4 weeks after Telaprevir treatment)
